Source: patent publication US20230055711A1 (BIOSION, published 2023)
Results are given in words; binding and its absence hold for the method and conditions named.

Target: cynomolgus BCMA-his protein (Acro biosystems, Cat #BCA-052H7) (cynomolgus monkey)
Assay: condition: 10000 ng/ml (highest antibody concentration); indirect ELISA, cynomolgus BCMA-his coated

B1: huB1H2-V33 (antibody, human IgG1, kappa, V domains shown)
VH: QVQLVQSGAEVKKPGASVKVSCKASGYTLTNYVMHWVRQAPGQGLEWIGFIIPFNDGTKYNEHFKGRVTITSDTSISTAYMQLSSLRSEDTAVYYCARYDFEGYFDVWGQGTLVTVSS
VL: DIQMTQSPSSLSASVGDRVTITCSASQDITNFLNWYQQKPGKAPKLLIYSTSRLHSGVPSRFSGSGSGTDFTFTISSLQPEDIATYYCQQYSNLPWTFGQGTKVEIKR
notes: Humanized IgG1/kappa; cell supernatant in the Octet assay, purified antibody in Biacore, ELISA and FACS
binding: no binding
